Measurements: PMC5651913, “Photosensing and Thermosensing by Phytochrome B Require Both Proximal and Distal Allosteric Features within the Dimeric Photoreceptor” (Scientific Reports, 2017)
Results are given in words; binding and its absence hold for the method and conditions named.

Amino acid sequences for entries named in this document (tags omitted). A change or cut given only in a name is not applied to a line headed by its entry.
UniProt P14713: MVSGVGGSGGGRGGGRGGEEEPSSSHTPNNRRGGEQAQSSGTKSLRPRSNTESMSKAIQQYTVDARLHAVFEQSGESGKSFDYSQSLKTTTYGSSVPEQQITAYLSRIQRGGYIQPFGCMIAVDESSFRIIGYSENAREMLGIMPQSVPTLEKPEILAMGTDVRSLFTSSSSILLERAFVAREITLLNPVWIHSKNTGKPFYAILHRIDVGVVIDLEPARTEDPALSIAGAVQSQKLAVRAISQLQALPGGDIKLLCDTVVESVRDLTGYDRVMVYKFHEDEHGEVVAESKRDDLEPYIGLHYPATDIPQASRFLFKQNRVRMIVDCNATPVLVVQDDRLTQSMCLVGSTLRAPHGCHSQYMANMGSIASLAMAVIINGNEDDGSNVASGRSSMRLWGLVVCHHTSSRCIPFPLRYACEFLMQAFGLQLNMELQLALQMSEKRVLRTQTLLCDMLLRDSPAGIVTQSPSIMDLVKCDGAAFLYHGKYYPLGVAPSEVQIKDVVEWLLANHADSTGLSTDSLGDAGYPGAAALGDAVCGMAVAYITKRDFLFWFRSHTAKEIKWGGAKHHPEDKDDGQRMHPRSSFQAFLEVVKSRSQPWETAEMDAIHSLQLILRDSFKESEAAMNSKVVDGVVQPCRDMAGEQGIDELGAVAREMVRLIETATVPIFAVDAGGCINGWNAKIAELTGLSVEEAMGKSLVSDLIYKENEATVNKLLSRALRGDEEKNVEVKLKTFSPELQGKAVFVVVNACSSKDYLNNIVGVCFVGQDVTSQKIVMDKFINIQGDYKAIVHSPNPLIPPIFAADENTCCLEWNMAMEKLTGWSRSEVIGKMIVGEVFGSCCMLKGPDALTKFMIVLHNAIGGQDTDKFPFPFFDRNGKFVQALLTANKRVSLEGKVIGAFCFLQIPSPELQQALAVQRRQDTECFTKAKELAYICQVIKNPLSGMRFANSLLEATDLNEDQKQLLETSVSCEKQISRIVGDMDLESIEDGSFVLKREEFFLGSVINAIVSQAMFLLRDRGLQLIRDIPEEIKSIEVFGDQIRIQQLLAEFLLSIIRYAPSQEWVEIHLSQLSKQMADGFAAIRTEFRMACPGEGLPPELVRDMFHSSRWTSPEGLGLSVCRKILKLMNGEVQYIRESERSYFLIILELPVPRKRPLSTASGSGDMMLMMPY

What was measured:
[1] = target: Arabidopsis thaliana PhyB 1–450 fragment assembled with PΦB (Arabidopsis thaliana) (UniProt P14713); assay: SEC; Superdex 200 HR 10/30, 10 °C, 150 mM KCl, 50 mM HEPES-NaOH pH 7.8, 0.3 mM TCEP; samples as Pr at 0.6 mg/ml; apparent mass from size standards; monomer to dimer; both purified
[2] = target: Arabidopsis thaliana PhyB 1–450 fragment assembled with PΦB (Arabidopsis thaliana) (UniProt P14713); assay: SEC; Superdex 200 HR 10/30, 10 °C, 150 mM KCl, 50 mM HEPES-NaOH pH 7.8, 0.3 mM TCEP; samples as Pr; solution size against chromoprotein concentration (a series of concentrations); monomer to dimer or higher oligomer; both purified
[3] = target: Arabidopsis thaliana PhyB 1–908 fragment assembled with PΦB (Arabidopsis thaliana) (UniProt P14713); assay: negative-stain single-particle EM; as Pr, fixed onto carbon films, stained with phosphotungstic acid; reference-free 2D class averages; low protein concentration; both purified
[4] = target: Arabidopsis thaliana PhyB 1–624 fragment assembled with PΦB (Arabidopsis thaliana) (UniProt P14713); assay: SEC; Superdex 200 HR 10/30, 10 °C, 150 mM KCl, 50 mM HEPES-NaOH pH 7.8, 0.3 mM TCEP; samples as Pr at 0.6 mg/ml; apparent mass from size standards; monomer to dimer; both purified
[5] = target: Arabidopsis thaliana PhyB 1–624 fragment assembled with PΦB (Arabidopsis thaliana) (UniProt P14713); assay: SEC; Superdex 200 HR 10/30, 10 °C, 150 mM KCl, 50 mM HEPES-NaOH pH 7.8, 0.3 mM TCEP; samples as Pr; solution size against chromoprotein concentration (a series of concentrations); monomer to dimer or higher oligomer; both purified

Question: Which results are given for “Arabidopsis thaliana PhyB 1–450 fragment assembled with PΦB (from UniProt P14713 1-450) (domain or fragment)”?
Answer: binding [1]: no binding (tested: 0.6 mg/ml); binding [2]: no binding (tested: all concentrations tested)

Question: “Arabidopsis thaliana PhyB 1–908 fragment assembled with PΦB (from UniProt P14713 1-908) (domain or fragment)” was tested. Which binding [3] did it give?
Answer: The binding was “no binding (condition: at low protein concentrations)”.

Question: Which binding [4] does the source give for “Arabidopsis thaliana PhyB 1–624 fragment assembled with PΦB (from UniProt P14713 1-624) (domain or fragment)” here?
Answer: Its binding is “no binding (tested: 0.6 mg/ml)”.

Question: And the binding [5]?
Answer: Its binding is “no binding (tested: all concentrations tested)”.
